{"source": "paper PMC8215750", "target": "T1, myoglobin (rat (endogenous in Sprague-Dawley rat kidney)) (UniProt Q9QZ76)", "T1 sequence": "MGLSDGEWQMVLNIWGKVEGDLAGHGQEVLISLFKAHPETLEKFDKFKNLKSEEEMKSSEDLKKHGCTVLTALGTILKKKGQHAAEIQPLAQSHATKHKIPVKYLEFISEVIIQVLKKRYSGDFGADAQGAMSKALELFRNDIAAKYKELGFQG", "experiment": "co-IP; kidneys of sham and CS rats at 12 h lysed in IP lysis buffer; 1 ug monoclonal anti-myoglobin antibody and protein-A magnetic beads, 4 °C overnight; washed three times; Western blotting with anti-RIG-I", "note": "Results are given in words; binding and its absence hold for the method and conditions named. In cells and extracts the contact can be indirect. Binding calls can cover weak binding; strength is not graded here."}
{"substance": "Retinoic acid-inducible gene I", "values": [{"measurement": "binding", "value": "binds"}]}
